PubChem BioAssay AID602196 | INSERM | 2012

Assay: 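Knock-downs that protect lung cancer cells from cisplatin or sensitise them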
Cell system: human A549 lung cancer cells
Reagent: siRNA pair against human genes
Timing: 48 h transfection before cisplatin; time from cisplatin to read-out not stated
Conditions: cisplatin at a dose killing half of control-siRNA cells; exact dose and duration not given
Measurement: 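Cisplatin cell death as a shift from the 50% death seen with control siRNA; siRNAs toxic or growth-blocking alone scored 0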
Reading the numbers: two-siRNA summed score (-2 to +2): higher = both siRNAs protect from cisplatin killing; -2 means both sensitise; mean protection from cisplatin (shift in death) and protection from cisplatin (shift in death), siRNA C: higher = protection from cisplatin killing
Active means: 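Each siRNA scores 0 if harmful alone by LDH or WST-1, otherwise +1 if it reduces and -1 if it increases cisplatin killing; a gene is active when both siRNAs agree (sum +2 or -2)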
Meaning of the calls: active = both siRNAs shift cisplatin killing the same way; inactive = no consistent shift, or siRNA harmful alone
The deposit covers about 23,000 reagents; below is a part drawn at random. Of all reagents, 455 (2%) are marked active. 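Active includes both protection and sensitisation; some change values fall well beyond the stated -50 to +50 range.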 Entries without a mark were called inactive. Not all columns of the deposit are shown. Not given: the amount of reagent.

| target gene | two-siRNA summed score (-2 to +2) | mean protection from cisplatin (shift in death) (%) | protection from cisplatin (shift in death), siRNA C (%) |
| --- | --- | --- | --- |
| RHBG (GeneID 57127) | 1 | 8.7 | -0.3 |
| CCDC97 (GeneID 90324) | 0 | 4.5 | 6.1 |
| ZNF670 (GeneID 93474) | 0 | -15.8 | -12.5 |
| TRIM26 (GeneID 7726) | 0 | 11.4 | 13.1 |
| ARHGAP26 (GeneID 23092) | 0 | 8.4 | 14.3 |
| TIMM9 (GeneID 26520) | 0 | -0.4 | 5.4 |
| LOC440784 | 1 | 8.7 | 17.4 |
| P4HB (GeneID 5034) | 0 | -0.9 | 0.7 |
| TRIB2 (GeneID 28951) | 0 | -6.7 | -12.3 |
| GLTP (GeneID 51228) | 0 | 3.6 | 4.8 |
| AIMP2 (GeneID 7965) | 0 | -3.4 | -11.5 |
| HCG9 (GeneID 10255) | 1 | 8.8 | 11.2 |
| ATP11C (GeneID 286410) | 1 | 12.9 | 15.4 |
| CXorf58 (GeneID 254158) | 0 | 6 | 6.1 |
| LOC388345 | 0 | -2.9 | 4.7 |
| EIF4EBP1 (GeneID 1978) | 0 | 7.6 | -3.6 |

Continued; the last 4 above are carried over.
| target gene | two-siRNA summed score (-2 to +2) | mean protection from cisplatin (shift in death) (%) | protection from cisplatin (shift in death), siRNA C (%) |
| --- | --- | --- | --- |
| ATP11C (GeneID 286410) | 1 | 12.9 | 15.4 |
| CXorf58 (GeneID 254158) | 0 | 6 | 6.1 |
| LOC388345 | 0 | -2.9 | 4.7 |
| EIF4EBP1 (GeneID 1978) | 0 | 7.6 | -3.6 |
| STK38 (GeneID 11329) | 1 | 19.7 | -6 |
| LOC440251 | 0 | 10.5 | 12.1 |
| FBLN1 (GeneID 2192) | 1 | 1.8 | 14.1 |
| NEK7 (GeneID 140609) | 0 | 2.3 | 7.9 |
| PIGM (GeneID 93183) | 0 | 7 | 19 |
| WDR49 (GeneID 151790) | 0 | -9.1 | -13.9 |
| MAFF (GeneID 23764) | -1 | -17.5 | -2.3 |
| PRIMPOL (GeneID 201973) | 0 | 2.8 | 1 |
| OGDHL (GeneID 55753) | 0 | 3 | 9.4 |
| PTK6 (GeneID 5753) | 0 | 4.8 | 22.1 |
| FCN3 (GeneID 8547) | -1 | -10.9 | -3.6 |
| YEATS4 (GeneID 8089) | -1 | -13.5 | -18.5 |
| GSDMC (GeneID 56169) | -1 | -11.9 | -16.9 |
| H2BC4 (GeneID 8347) | 0 | 5.9 | 5.1 |
| LOC389252 | 0 | 8.3 | 2.9 |
| LOC389988 | -1 | -5.1 | -11.7 |
| FMN2 (GeneID 56776) | 1 | 10 | 1.4 |
| IAPP (GeneID 3375) | -1 | -33.9 | -46.4 |
| OR2T10 (GeneID 127069) | 0 | 7 | 5 |
| EFEMP2 (GeneID 30008) | 0 | 5.5 | 30.7 |
| FOXJ1 (GeneID 2302) | 0 | -1.5 | -0.6 |
| SCG3 (GeneID 29106) | 0 | -1.6 | -7.5 |
| ASB1 (GeneID 51665) | 0 | -9.5 | 3.3 |
